Experimental data from patent US20130115167A1.
These are yes or no findings as the source states them, for the method shown. Some entries that bind do so weakly or less than the wild type.

What was measured:
[1] = target: T1, p32/gC1q-R, cell surface p32 on mouse plaque cells and 4T1 tumor macrophages (mouse) (UniProt O35658); test: flow cytometry; 1 nmol FAM-peptide incubated 10 min on ice with live primary mouse cells
T1 sequence (looked up): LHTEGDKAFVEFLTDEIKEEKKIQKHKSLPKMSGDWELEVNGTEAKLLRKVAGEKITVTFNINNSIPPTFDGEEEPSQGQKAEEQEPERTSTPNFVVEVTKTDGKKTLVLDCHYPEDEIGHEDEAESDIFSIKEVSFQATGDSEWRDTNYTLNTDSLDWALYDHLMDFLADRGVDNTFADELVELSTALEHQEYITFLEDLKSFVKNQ

[2] = target: T1, p32/gC1q-R, cell surface p32 on mouse plaque cells and 4T1 tumor macrophages (mouse); test: flow cytometry of FAM-LyP-1 against FAM-ARAL on primary mouse cells (FIG. 11B)

binding [1]: binds | binding [2]: binds
Binder: CGNKRTRGC (labeled with fluorescein (FAM); cyclic 9-amino acid peptide) [FAM-LyP-1 (fluorescein-labeled LyP-1 peptide, …)]
